Data taken from the supplement of paper PMC12823440, “Inhibitors supercharge kinase turnover through native proteolytic circuits” (Nature, 2025).
Counter-ions that a name gives are not always drawn. Some of the results follow. The calls rarely recur for the same compound in another form.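 Kinases, fused to nanoluciferase, were expressed in K562 cells; luminescence was measured every 4 h from 2 to 18 h as percent of control (DMSO = 100%, positive control = 0%). A time point is decreased if signal falls significantly (2 sigma). Hits were called by the authors by a rule that is not shown; the count of time points alone does not decide it.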

Chains of the proteins cited; added tags and fusions are not shown.
UniProt P21860, whole entry: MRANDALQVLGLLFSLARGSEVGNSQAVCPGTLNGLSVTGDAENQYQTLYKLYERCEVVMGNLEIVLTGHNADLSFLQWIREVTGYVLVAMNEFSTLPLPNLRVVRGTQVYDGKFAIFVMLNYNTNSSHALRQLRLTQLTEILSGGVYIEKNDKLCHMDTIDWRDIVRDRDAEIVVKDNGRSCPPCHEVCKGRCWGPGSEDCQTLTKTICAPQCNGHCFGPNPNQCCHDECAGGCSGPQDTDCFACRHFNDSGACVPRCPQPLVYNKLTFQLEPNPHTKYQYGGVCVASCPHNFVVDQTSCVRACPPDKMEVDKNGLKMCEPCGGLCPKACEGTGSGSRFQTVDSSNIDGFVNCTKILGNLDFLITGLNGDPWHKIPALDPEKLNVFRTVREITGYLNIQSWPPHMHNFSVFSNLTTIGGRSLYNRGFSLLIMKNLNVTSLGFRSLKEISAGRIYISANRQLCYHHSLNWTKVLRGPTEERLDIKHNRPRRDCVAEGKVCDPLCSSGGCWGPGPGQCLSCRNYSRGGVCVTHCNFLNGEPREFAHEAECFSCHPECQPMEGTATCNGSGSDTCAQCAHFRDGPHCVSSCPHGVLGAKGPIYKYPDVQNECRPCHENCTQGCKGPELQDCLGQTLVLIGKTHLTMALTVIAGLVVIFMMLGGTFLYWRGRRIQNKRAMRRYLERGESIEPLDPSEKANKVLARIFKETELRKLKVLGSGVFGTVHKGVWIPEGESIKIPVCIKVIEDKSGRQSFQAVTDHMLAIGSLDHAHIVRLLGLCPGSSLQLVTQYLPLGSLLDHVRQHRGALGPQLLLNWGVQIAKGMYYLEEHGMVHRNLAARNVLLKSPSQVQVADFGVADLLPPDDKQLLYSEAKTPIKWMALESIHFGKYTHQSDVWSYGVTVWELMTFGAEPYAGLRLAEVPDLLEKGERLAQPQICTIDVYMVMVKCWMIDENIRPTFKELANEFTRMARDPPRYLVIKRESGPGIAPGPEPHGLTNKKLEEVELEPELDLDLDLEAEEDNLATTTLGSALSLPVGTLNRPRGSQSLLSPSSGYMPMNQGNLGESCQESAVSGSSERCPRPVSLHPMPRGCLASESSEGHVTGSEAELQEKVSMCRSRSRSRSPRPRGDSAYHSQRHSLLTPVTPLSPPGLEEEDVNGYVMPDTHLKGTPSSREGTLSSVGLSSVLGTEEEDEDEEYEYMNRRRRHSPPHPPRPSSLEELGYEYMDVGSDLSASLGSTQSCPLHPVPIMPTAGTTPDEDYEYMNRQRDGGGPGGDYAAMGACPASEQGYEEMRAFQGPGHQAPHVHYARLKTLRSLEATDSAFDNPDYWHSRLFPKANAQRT

target: ERBB3 (UniProt P21860); assay: kinase-Nluc reporter destabilization hit call (1 = scored as downregulated) (binary); higher = compound decreases kinase abundance; settings: 10 µM; K562; 2-18 h

kinase-Nluc reporter destabilization hit call, inactive:
N#CCNC(=O)c1ccc(-c2ccnc(Nc3ccc(N4CCOCC4)cc3)n2)cc1 [Momelotinib] 0, CC(=O)Nc1cccc(-n2c(=O)n(C3CC3)c(=O)c3c(Nc4ccc(I)cc4F)n(C)c(=O)c(C)c32)c1 [Trametinib] 0, O=C(Nc1cnn2ccc(N3CCC[C@@H]3c3cc(F)ccc3F)nc12)N1CC[C@H](O)C1 [Larotrectinib sulfate] 0, C#Cc1cccc(Nc2ncnc3cc4c(cc23)OCCOCCOCCO4)c1 [Icotinib (Hydrochloride)] 0, COc1cc2nccc(Oc3ccc(NC(=O)C4(C(=O)Nc5ccc(F)cc5)CC4)cc3)c2cc1OC [Cabozantinib (S-malate)] 0, N#CC[C@H](C1CCCC1)n1cc(-c2ncnc3[nH]ccc23)cn1 [Ruxolitinib] 0, CS(=O)(=O)N1CCN(Cc2cc3nc(-c4cccc5[nH]ncc45)nc(N4CCOCC4)c3s2)CC1 [Pictilisib (dimethanesulfonate)] 0, N#CCNC(=O)c1ccc(-c2ccnc(Nc3ccc(N4CCOCC4)cc3)n2)cc1 [Momelotinib sulfate] 0, C[C@H](CCC(=O)NCCS(=O)(=O)O)[C@H]1CC[C@H]2[C@@H]3[C@@H](O)C[C@@H]4C[C@H](O)CC[C@]4(C)[C@H]3CC[C@]12C [Tauroursodeoxycholate (sodium)] 0, CN(C)C(=N)NC(=N)N [Metformin (hydrochloride)] 0, C/C=C1\C(=O)C[C@H]2[C@@H]3CCC4=CC(=O)CC[C@]4(C)[C@H]3CC[C@]12C [Guggulsterone] 0, Cn1cc(-c2cnc3ccc4ccc(CS(=O)(=O)NCc5ccccn5)cc4c(=O)c3c2)cn1 [MK-8033 (hydrochloride)] 0, C/C=C1\C(=O)C[C@H]2[C@@H]3CCC4=CC(=O)CC[C@]4(C)[C@H]3CC[C@]12C [(Z)-Guggulsterone] 0, COc1cc2c(-c3cnn4cc(N5CCC(N6CCN(C)CC6)CC5)cnc34)ccnc2cc1F 0
